Measurements taken from CN111484554A.
Results are given in words; binding and its absence hold for the method and conditions named. Some binding calls cover weakened binding; strength is not graded here.

The chains behind the UniProt entries cited, without tags or fusion partners. Where a name states a change or a piece, a line headed by the entry shows the natural chain unless it says otherwise. A line that says so, or that is headed by a name, gives the form on record, which may keep a tag or linker.
4-1BB(24-180)-His重组蛋白 (4-1BB胞外段24-180位氨基酸, C端6个His) (Q07011, form named): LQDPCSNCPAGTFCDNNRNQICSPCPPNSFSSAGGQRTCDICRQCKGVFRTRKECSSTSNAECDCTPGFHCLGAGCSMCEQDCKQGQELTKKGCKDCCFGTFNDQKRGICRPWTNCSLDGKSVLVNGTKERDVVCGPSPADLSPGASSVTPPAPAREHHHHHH

Target: 4-1BB(24-180)-His重组蛋白 (4-1BB胞外段24-180位氨基酸, C端6个His) (UniProt Q07011)
Assay: ELISA, hybridoma supernatant on coated 4-1BB monomer (300 ng/well)

- binding: binds
B1: 11B6抗体 (鼠源4-1BB单克隆抗体) (antibody, mouse IgG1, kappa, V domains shown)
VH: QVQLQQPGAELVRPGASVKLSCKASGYTFTSYWINWVKQRPGQGLEWIGNIYPSDSYTNYNQKFKDKATLTVDKSSSTAYMQLSSPTSEDSAVYYCTRESQTGTGYYAMDYWGQGTSVTVSS
VL: DIQMTQTTSSLSASLGDRVTISCRASQDISNYLNWYQQKPDGTVKLLIYYTSRLHSGVPSRFSGSGSGTDYSLTISNLEQEDIATYFCQQGNTLPWTFGGGTKLEIKR
